From patent US10849879B2, “Localized modulation of tissues and cells to enhance therapeutic effects including renal denervation” (Mercator MedSystems, Inc., priority 2011, dated 2020)

Columns and labels:
renal sympathetic nerves = conditions: pig, pH 9.3
[1] = system: Rat SCG: Primary rat superior cervical ganglia cells; conditions: pH 9.3
[2] = system: harvested and cultured rat superior cervical ganglia neurons; conditions: pH of 7.2; primary rat superior cervical ganglia neurons in culture; cited from earlier work

In the case of `NC(N)=NCCN1CCCCCCC1` [guanethidine, 2-[2-(azocan-1-yl)ethyl]guanidine], the “toxicity in response to guanethidine” value (neuronal cell lines) is reported as “dose-dependent effects”, the neurotoxicity in vivo (renal sympathetic nerves) is reported as “significant observable neurotoxicity” and the toxicity [1] is reported as “dose-dependent toxicity”. For the same molecule, the cytotoxicity [2] was “lack of cytotoxicity”.
